# Test results reported in article PMC7819943, “Rice protein-binding microarrays: a tool to detect cis-acting elements near promoter regions in rice”.
# Chains of the proteins cited; added tags and fusions are not shown.
# UniProt Q0JBA9, entry or part of it: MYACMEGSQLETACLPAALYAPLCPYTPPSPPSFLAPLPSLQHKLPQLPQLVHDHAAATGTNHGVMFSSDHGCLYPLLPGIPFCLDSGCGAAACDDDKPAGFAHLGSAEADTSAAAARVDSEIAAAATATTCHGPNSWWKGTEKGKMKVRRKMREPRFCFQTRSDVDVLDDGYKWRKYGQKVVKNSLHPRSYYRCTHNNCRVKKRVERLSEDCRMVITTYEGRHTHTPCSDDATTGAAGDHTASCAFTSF
# This is one part of the list.
# Target: OsWRKY34 (Oryza sativa, UniProt Q0JBA9 1-250)
# Experiment: protein-binding microarray (RPBM); PBS, 2% BSA, 51.3 ng/ul salmon testes DNA, 50 uM zinc acetate, 200 nM TF, 25 C, 1 h; high values mean tight binding
# Conditions: protein: recombinant; tags: N-terminal polyhistidine and DsRed monomer fusion (pET32a); label: CyDye5-dUTP incorporated in the synthesized complementary strand; 3' TTTTT single-stranded linker to array surface; dsDNA, one strand shown
# How it was run: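 The binding signal is fluorescence intensity per array feature (arbitrary units). Readings came from an Axon 4000B scanner after a washed, 2% BSA-blocked, double-stranded custom Agilent array had been incubated for 1 h at 25 °C with 200 nM protein and 50 µM zinc acetate. The protein was a Ni–NTA-purified transcription factor fused N-terminally to polyhistidine and DsRed, expressed in E. coli BL21-CodonPlus.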
row,Sequence,binding signal
1,CCAAATCAATCAAATCGCATTCCACCAATTCTCCACTCTCCGGAGTCACCTAGTGCAG,9010 fluorescence intensity (a.u.)
2,TTATCCAAATGTCTAACTTATTCTTTTTATTTATTGGCAGCGGAGTCACCTAGTGCAG,8410 fluorescence intensity (a.u.)
3,ACGGACAAACTGGACCACCAACGCGGACAAACAAATCTCTCGGAGTCACCTAGTGCAG,8210 fluorescence intensity (a.u.)
4,CAATTTCCACTCCATTTATTTGTTCCTTTTTTTCTAACAGCGGAGTCACCTAGTGCAG,8330 fluorescence intensity (a.u.)
5,GATCCTTTTGTCCTTGTCCATTGTTCCATCTAATGTACTACGGAGTCACCTAGTGCAG,16000 fluorescence intensity (a.u.)
6,AGATCATCTCAATACGTTCATTTACCACTTTGTTTCACTTCGGAGTCACCTAGTGCAG,9030 fluorescence intensity (a.u.)
7,GGTTGGTGCTTCTGAATTCTGGGGTTAGGTTTGTCTCCTGCGGAGTCACCTAGTGCAG,12000 fluorescence intensity (a.u.)
8,TAGATACAGTTGTCGTTTTGATTTGTAAACAATTTAGCATCGGAGTCACCTAGTGCAG,8590 fluorescence intensity (a.u.)
9,GCAACTTCCATCTCTTTGCAATGGTGCTTTGGCCAAGCAACGGAGTCACCTAGTGCAG,8780 fluorescence intensity (a.u.)
10,CTGCGGCCACACCTCCAACCGTGTTGCTGCCATCAGCCTCCGGAGTCACCTAGTGCAG,8480 fluorescence intensity (a.u.)
11,AACCTAATCTAGTTTGACTCATCTGCTGGGTCAAATCTATCGGAGTCACCTAGTGCAG,11500 fluorescence intensity (a.u.)
12,TGGATTAGTCTGTCTTCTACTGGTTTTTAGCTGCTATAATCGGAGTCACCTAGTGCAG,11900 fluorescence intensity (a.u.)
13,ACTGCTATCGTATTGTACTTTTGTGCTGAAATGTTCACGCCGGAGTCACCTAGTGCAG,8640 fluorescence intensity (a.u.)
14,CTCCCATTCCATCGCCGCCACCGCCTCCGCATCTCCAGCGCGGAGTCACCTAGTGCAG,9040 fluorescence intensity (a.u.)
15,TTCTCAGCCAATCCCCAGCTCACACGTGCCAACTCTTCCACGGAGTCACCTAGTGCAG,8840 fluorescence intensity (a.u.)
16,CTTGTGGGGTGCGGGTAGCCGTTAAGGCCGCGGGGTGACTCGGAGTCACCTAGTGCAG,13000 fluorescence intensity (a.u.)
17,CTTTCGACCAGTTTGGTAACTAACTGCGTTGACTGTACCCCGGAGTCACCTAGTGCAG,11000 fluorescence intensity (a.u.)
18,CACTCACTCGCACCACCGGACCTCACCTGCCGCGGCCATGCGGAGTCACCTAGTGCAG,9910 fluorescence intensity (a.u.)
19,ATCCCATAATTTCATGGTGCTCCGGCCCTGTTGTATCATTCGGAGTCACCTAGTGCAG,8300 fluorescence intensity (a.u.)
20,GCCGCCGACCGCGAGTGACGGCGAGGGCTTTTTCCCCGTGCGGAGTCACCTAGTGCAG,8650 fluorescence intensity (a.u.)
21,AAATGTTACAATCATGCTCCAAACTCACACCTTGTTTAACCGGAGTCACCTAGTGCAG,8540 fluorescence intensity (a.u.)

# Single values from above.
# TTATCCAAATGTCTAACTTATTCTTTTTATTTATTGGCAGCGGAGTCACCTAGTGCAG | binding signal: 8410 fluorescence intensity (a.u.)
# TAGATACAGTTGTCGTTTTGATTTGTAAACAATTTAGCATCGGAGTCACCTAGTGCAG | binding signal: 8590 fluorescence intensity (a.u.)

# (continued)

row,Sequence,binding signal
1,ATGTGGTGGTTTGCCTTTAGCTCTTGTTACAATAGGGAGTCGGAGTCACCTAGTGCAG,9830 fluorescence intensity (a.u.)
2,ATCAACCATGAACCATCCGCGCCCGCGCACCTCCTCCTCTCGGAGTCACCTAGTGCAG,8100 fluorescence intensity (a.u.)
3,ACGAAATCGCTGGTCCTAGATTCTGCAGAATTGATGTCTTCGGAGTCACCTAGTGCAG,8080 fluorescence intensity (a.u.)
4,TTTTTCTCCTGGAATTTTGTGTCCTGTTTCTCTGTGTGGGCGGAGTCACCTAGTGCAG,9760 fluorescence intensity (a.u.)
5,TTCTCCGGCTCCGCCGCGCGTTCTACTTCTACCGTTACCGCGGAGTCACCTAGTGCAG,14300 fluorescence intensity (a.u.)
6,TTTTTGTCTTATTGTTTTGTTTATTTTATTTCAGTTTATTCGGAGTCACCTAGTGCAG,9760 fluorescence intensity (a.u.)
7,AGCTACACAACCTTTGTCCCTCAACTTTGGCTCTATGGCCCGGAGTCACCTAGTGCAG,8770 fluorescence intensity (a.u.)
8,CTCACACCCTCGTCCAGCCAAGGCGGCGGCGCACAGCCAGCGGAGTCACCTAGTGCAG,9210 fluorescence intensity (a.u.)
9,AGTATGTGTTGTCAGTGTTGATATCTCCTCCCTAATCCAACGGAGTCACCTAGTGCAG,8970 fluorescence intensity (a.u.)
10,GCTGATGAATGATGTTGTGCAATTATAATTTTCTTCTTCTCGGAGTCACCTAGTGCAG,8360 fluorescence intensity (a.u.)
11,ACACTTGCTTTTGTCACTTCTATTTTGGCAGAAACAAACACGGAGTCACCTAGTGCAG,8750 fluorescence intensity (a.u.)
12,GTCTTTCTCTCTTCAGCATCTCTACTCTCGCTCCATTTCTCGGAGTCACCTAGTGCAG,11500 fluorescence intensity (a.u.)
13,CTGATGCGCCTATGGTTTTGACCTTTCTGGCTTGGACGGACGGAGTCACCTAGTGCAG,10100 fluorescence intensity (a.u.)
14,ACCGTCCCATTTTAAATACAGTTGTGGGTTTTCGTATTTACGGAGTCACCTAGTGCAG,8150 fluorescence intensity (a.u.)
15,GAACTAACCTTTGCCACCACTGATCCCTGCTGCTACTCCTCGGAGTCACCTAGTGCAG,9080 fluorescence intensity (a.u.)
16,ACTTTATCTTTGCCGCCGGCCGCCACAACTGCTTCTACGGCGGAGTCACCTAGTGCAG,9180 fluorescence intensity (a.u.)
17,CGTACCTTTTTCGGTTTTCTTTTTTTTTCTTTTTTTTTCTCGGAGTCACCTAGTGCAG,8120 fluorescence intensity (a.u.)
18,TAGTTAAGAGATGCCGGATGTTTGGTTTTTCGGTCGGGGACGGAGTCACCTAGTGCAG,9400 fluorescence intensity (a.u.)
19,CACGATGAGGCCATCACCGGCCCACCTCCGCCCGAATCAACGGAGTCACCTAGTGCAG,9160 fluorescence intensity (a.u.)
20,TGATGTGTCCTTTTCTTTTTTTTCTTCTTTTATTTTTCTTCGGAGTCACCTAGTGCAG,12300 fluorescence intensity (a.u.)
21,TTCTTGGCCCGCTAACTCATGATGGTTTTATCCAGATCGTCGGAGTCACCTAGTGCAG,9880 fluorescence intensity (a.u.)
